Reference: PubChem BioAssay AID1439 (NMMLSC, 2008)
The campaign covered roughly 220,000 compounds. About 770 (0.35%) were called active. Inconclusive means that the source gave no clear call. Such entries were picked first, then a sample of the others. Cut-off read from the data, not from the text of the source: active = binding response below about 49% or above about 150%; inconclusive = no clear call, values can overlap the other calls; inactive = in between.

The chains behind the UniProt entries cited, without tags or fusion partners.
UniProt P09471, whole entry, looked up: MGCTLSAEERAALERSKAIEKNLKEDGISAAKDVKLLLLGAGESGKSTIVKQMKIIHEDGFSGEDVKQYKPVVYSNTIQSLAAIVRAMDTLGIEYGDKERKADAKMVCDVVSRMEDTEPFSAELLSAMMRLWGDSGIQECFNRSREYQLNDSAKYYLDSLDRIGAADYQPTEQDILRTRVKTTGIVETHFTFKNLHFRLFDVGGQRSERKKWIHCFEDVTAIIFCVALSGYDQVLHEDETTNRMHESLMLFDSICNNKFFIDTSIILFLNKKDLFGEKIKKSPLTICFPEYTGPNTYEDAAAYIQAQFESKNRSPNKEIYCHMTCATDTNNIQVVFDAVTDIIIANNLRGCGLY

These molecules were tested against Guanine nucleotide-binding protein G(o) subunit alpha (Homo sapiens) (UniProt P09471) (assay: RGS7-Galphao binding modulators, primary screen, biochemical, multiplexed bead flow cytometry (AID 1439;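 note: fluorescent Galphao held in activated GDP-AlF4 state binding bead-coupled RGS7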)). Details: at 10 µM, actives lie on both sides.
`Cc1nc2nc[nH]n2c(=O)c1CCC(C)C` was tested, and the binding response (% of control) was inactive: 89.5%.
With `NC(=O)c1nnn(-c2cccc(C(F)(F)F)c2)c1-c1ccccc1` the binding response (% of control) was inconclusive: 96.6%.
For `Cc1ccc(S(=O)(=O)N2CCc3ccccc3C2CC(=O)O)cc1` (stereo not drawn), the binding response (% of control) was inconclusive: 72.5%.
`COc1cccc(CN2CCNC(=O)C2CC(=O)NCc2cn3ccc(C)cc3n2)c1OC` (stereo not drawn) was tested, and the binding response (% of control) was inconclusive: 158%.
In the case of `Cc1ccc(OCC(=O)Nc2ccc(F)cc2)c([N+](=O)[O-])n1`, the binding response (% of control) is reported as inconclusive: 123%.
In the case of `CCCN1C2CCCC1CC(NC(=S)Nc1cccc(C)c1C)C2` (stereo not drawn), the binding response (% of control) is reported as inconclusive: 98.4%.
In the case of `Cc1cc([N+](=O)[O-])nn1CCCC(=O)NCc1ccc(F)cc1`, the binding response (% of control) is reported as inactive: 94.8%.
In the case of `Cc1nnc(NC(=O)c2ccc(C)c(S(=O)(=O)N3CCOCC3)c2)s1`, the binding response (% of control) is reported as inactive: 100%.
`COC(=O)CN1C(CN2CCOCC2)=Nc2ccc(Br)cc2C1c1ccccc1` (stereo not drawn) was tested, and the binding response (% of control) was inconclusive: 101%.
For `CC/C(=N\NC(=O)C(N)=O)c1ccccc1O`, the binding response (% of control) was inactive: 90.2%.
For `O=C(NCCCN1CCCC1=O)c1cc(-c2ccc3c(c2)OCO3)nc2ccccc12`, the binding response (% of control) was inconclusive: 119%.
`COc1c(N2CCN(C(=S)NCc3ccccc3)C(C)C2)c(F)cc2c(=O)c(C(=O)O)cn(C3CC3)c12` (stereo not drawn) was tested, and the binding response (% of control) was inactive: 110%.
In the case of `Cn1c(=NC(=O)c2ccco2)sc2cccc(F)c21`, the binding response (% of control) is reported as inactive: 103%.
For `Cc1ccc(S(=O)(=O)N2CCC(C(=O)N[C@H](C(=O)NC3CCS(=O)(=O)C3)C(C)C)CC2)cc1` (stereo partly drawn), the binding response (% of control) was inactive: 108%.
For `C=C1CCN([C@H](C(=O)Nc2ccc(OC)cc2)C(C)C)S(=O)(=O)c2ccccc21`, the binding response (% of control) was inconclusive: 108%.
For `NC(=O)Nc1n[nH]c(-c2ccccc2)n1`, the binding response (% of control) was inconclusive: 53.5%.
`COc1ccc(/C=N/NC(=O)Cn2cc(C(F)(F)F)ccc2=O)cc1` was tested, and the binding response (% of control) was inconclusive: 103%.
In the case of `COc1ccc(/C=N/n2cncn2)cc1Cn1nc(C)c([N+](=O)[O-])c1C`, the binding response (% of control) is reported as inconclusive: 90.1%.
With `O=C(c1ccccc1-c1nc(-c2ccccc2Cl)no1)N1CCOCC1` the binding response (% of control) was inconclusive: 185%.
`COc1ccccc1OCc1nc(C#N)c(N2CCCC2)o1` was tested, and the binding response (% of control) was active: 13.3%.
With `COc1cc(NC(=O)Cn2cnc3ccccc3c2=O)c(OC)cc1Cl` the binding response (% of control) was inconclusive: 90.3%.
In the case of `CCn1c(N)c(Br)c(=O)[nH]c1=O`, the binding response (% of control) is reported as inconclusive: 102%.
For `CN(C(=O)COc1ccccc1)c1nc(-c2ccc(F)cc2)cs1`, the binding response (% of control) was inactive: 104%.
In the case of `COc1ccc(S(=O)(=O)N2CCOCC2)cc1NC(=O)CSc1ncnc2ccccc12`, the binding response (% of control) is reported as inconclusive: 110%.
For `COc1cc(NC(=O)c2cccs2)c(OC)cc1NC(=O)CCC(=O)Nc1ccc2ncccc2c1`, the binding response (% of control) was inactive: 103%.
`Cc1nonc1C1CCCN1Cc1cn[nH]c1-c1ccc(-c2ccccc2)cc1` (stereo not drawn) was tested, and the binding response (% of control) was inactive: 103%.
For `NC(=O)COC(=O)/C=C/c1ccc(S(=O)(=O)N2CCCCCC2)cc1`, the binding response (% of control) was inconclusive: 89.8%.
In the case of `O=C(Nc1cccnc1)c1ccc(NS(=O)(=O)c2cccc([N+](=O)[O-])c2)cc1`, the binding response (% of control) is reported as inactive: 92%.
With `C[C@H](NC(=O)c1ccccc1Cl)C(=O)NCc1cccs1` the binding response (% of control) was inactive: 104%.
In the case of `O=C1CN(C(=O)/C=C/c2ccccc2F)c2ccccc2N1`, the binding response (% of control) is reported as inconclusive: 85.7%.
With `O=C(NP(=O)(N1CCCC1)N1CCCC1)C1=C(N2CCOCC2)/C(=C/c2cccc([N+](=O)[O-])c2)CC1` the binding response (% of control) was inconclusive: 128%.
With `CC(C)(C)OC(=O)NCCCCCc1nnc(SCc2ccccc2)o1` the binding response (% of control) was inconclusive: -38.4%.
For `O=C(CCC(=O)c1ccccc1)NCc1ccccc1`, the binding response (% of control) was inconclusive: 98.9%.
With `CCN(CC)S(=O)(=O)c1cccc(NC(=O)COC(=O)CNC(=O)c2cccc(F)c2)c1` the binding response (% of control) was inconclusive: 102%.
For `Cc1ccc([N+](=O)[O-])cc1S(=O)(=O)NCCc1cn2ccccc2n1`, the binding response (% of control) was inconclusive: 84.2%.
For `NNC(=O)c1ccc(COCC(F)(F)F)cc1`, the binding response (% of control) was inconclusive: 96.2%.
In the case of `Cc1ccc2c(c1)C(=O)CC1(CCCC1)O2`, the binding response (% of control) is reported as inconclusive: 118%.
`C/C(=N\Nc1ccc(C#N)cc1[N+](=O)[O-])c1ccc(C)o1` was tested, and the binding response (% of control) was inconclusive: 108%.
In the case of `O=C(NCC1CCCO1)C1CCN(C2CCN(Cc3cccs3)CC2)CC1` (stereo not drawn), the binding response (% of control) is reported as inconclusive: 167%.
For `CC1(C)Cc2cccc(C(=O)NCc3ccco3)c2O1`, the binding response (% of control) was inconclusive: 155%.
In the case of `CCCn1nc(NC(=O)c2cccs2)c2cc3cccc(C)c3nc21`, the binding response (% of control) is reported as inconclusive: 108%.
For `Cn1nc(C(F)(F)F)c(-c2ccccc2)c1NC(=O)CCC(=O)O`, the binding response (% of control) was inconclusive: 102%.
For `COc1ccc(NC(=O)/C=C/C(=O)O)c([N+](=O)[O-])c1`, the binding response (% of control) was inconclusive: 104%.
In the case of `Cc1ccc(C(=O)Cn2cncn2)cc1`, the binding response (% of control) is reported as inconclusive: 91.1%.
For `CNC(=S)NNC(=O)c1ccccc1Cl`, the binding response (% of control) was inconclusive: 41.2%.
For `COCCn1c(SCCOc2ccccc2)nc2ccccc2c1=O`, the binding response (% of control) was inconclusive: 74.2%.
In the case of `O=C(NCc1ccccn1)c1ccc(CNS(=O)(=O)c2cccc(Cl)c2)cc1`, the binding response (% of control) is reported as inactive: 103%.
With `CC(C)(C)NC(=S)NC(C)(C)C` the binding response (% of control) was inconclusive: 96%.
With `COc1ccc(C(=O)NNC(=O)CCn2nnc(-c3ccc(Cl)cc3)n2)cc1OC` the binding response (% of control) was inactive: 99.4%.
`Cc1cc(C(=O)NCc2ccc3c(c2)OCO3)c(C)o1` was tested, and the binding response (% of control) was inconclusive: 76.7%.
In the case of `S=C(NCC1CCCCC1)Nc1cccnc1`, the binding response (% of control) is reported as inactive: 94.2%.
With `O=C(NC(=S)N1CCN(C/C=C/c2ccccc2)CC1)c1ccc(F)cc1` the binding response (% of control) was inconclusive: -5.41%.
In the case of `CC1=NN(C(C#N)c2ccc([N+](=O)[O-])cc2)C(C)(C)C1` (stereo not drawn), the binding response (% of control) is reported as inconclusive: 110%.
With `Cc1ccc(-n2nc(C)c(/C=N/n3c(C)n[nH]c3=S)c2Cl)cc1` the binding response (% of control) was inactive: 103%.
`Cc1nc2c(C)cccn2c1/C(O)=C1\C(=O)C(=O)N(CCN(C)C)C1c1ccco1` (stereo not drawn) was tested, and the binding response (% of control) was inconclusive: 249%.
With `CCCCCNCc1ccc(OCc2ccc(Cl)nc2)c(OC)c1` the binding response (% of control) was inactive: 125%.
In the case of `O=C(O)CC12CC3CC(C1)CC(n1ncc(NCC4CCCO4)c(Cl)c1=O)(C3)C2` (stereo not drawn), the binding response (% of control) is reported as inconclusive: 281%.
With `COc1cc(/C=N/Nc2ccc(S(N)(=O)=O)cc2[N+](=O)[O-])cc(OC)c1O` the binding response (% of control) was inconclusive: 125%.
In the case of `Cc1ccc(C(=O)OCC(=O)Nc2ccccc2Sc2ccccc2)cc1C`, the binding response (% of control) is reported as inactive: 100%.
With `Cc1cc(SCC(=O)O)nc2ccccc12` the binding response (% of control) was inconclusive: 92.6%.
For `Cc1ccc(NC(=O)N2CCN(c3ncccc3C(F)(F)F)CC2)cc1`, the binding response (% of control) was inconclusive: 131%.
In the case of `COc1ccccc1-c1cn[nH]c1-c1ccc(OCc2ccccc2)cc1O`, the binding response (% of control) is reported as inconclusive: 68.1%.
`COC(=O)c1ccccc1NC(=O)NC1CC1` was tested, and the binding response (% of control) was inconclusive: 68.8%.
For `Cc1cc(=O)[nH]n(CCO)c1=O`, the binding response (% of control) was inconclusive: 83%.
In the case of `C(=N\Nc1nc2ccccc2[nH]1)/c1cccc2nccnc12`, the binding response (% of control) is reported as inconclusive: 106%.
`FC(F)(F)c1ccnc(Oc2ccc(C3=NCCS3)cc2)c1` was tested, and the binding response (% of control) was inconclusive: 34.9%.
With `Cc1cc(N/N=C/c2ccccc2)nc(N)n1` the binding response (% of control) was inconclusive: 43.3%.
In the case of `COc1ccc(C(=O)Nc2ccc(N3CCN(Cc4ccccc4)CC3)cc2)cc1`, the binding response (% of control) is reported as inactive: 104%.
With `Cc1cc(-c2nn(C)c(=O)c3ccccc23)cc(C)c1O` the binding response (% of control) was inconclusive: 90.5%.
For `O=C(O)CCn1c(O)c(C=C2N=c3ccccc3=N2)sc1=S`, the binding response (% of control) was inconclusive: 98%.
`COc1ccccc1Nc1cc(C(=O)NCc2cccnc2)c2ccccc2n1` was tested, and the binding response (% of control) was inconclusive: 102%.
With `CC(c1nnc(SCC(=O)Nc2cccnc2Cl)n1Cc1ccccc1)N(C)C` (stereo not drawn) the binding response (% of control) was inactive: 103%.
In the case of `CN(Cc1ccccc1)c1nc(-c2cccc([N+](=O)[O-])c2)nc2ccccc12`, the binding response (% of control) is reported as inactive: 103%.
`COc1ccccc1-n1c(=O)c2c3c(sc2n2c(=S)[nH]nc12)CCC3` was tested, and the binding response (% of control) was inactive: 103%.
`COc1ccc(C(=O)Nc2cccc(S(C)(=O)=O)c2)cc1` was tested, and the binding response (% of control) was inconclusive: 126%.
`Cn1c(=O)cc(C(=O)N/N=C/c2ccc(Cl)cc2)[nH]c1=O` was tested, and the binding response (% of control) was inconclusive: 86%.
With `CC(=O)NC(NC(=S)Nc1ccc(C)cc1C)C(Cl)(Cl)Cl` (stereo not drawn) the binding response (% of control) was inconclusive: 120%.
With `OCCC1CN(Cc2cccc3nonc23)CCN1Cc1ccsc1` (stereo not drawn) the binding response (% of control) was inconclusive: 64.5%.
For `Cn1cc(S(=O)(=O)N2CCCC(C(=O)O)C2)cn1` (stereo not drawn), the binding response (% of control) was inconclusive: 96.2%.
In the case of `COC(=O)c1c(N2C(=O)CC(Sc3ncccc3C(=O)O)C2=O)sc(C)c1C` (stereo not drawn), the binding response (% of control) is reported as inconclusive: 84.7%.
For `Fc1ccc(-c2csc(N3CCOCC3)n2)cc1`, the binding response (% of control) was inconclusive: 131%.
In the case of `COC(=O)Cc1ccc(NC(=S)NCCSc2ccc(C)cc2)cc1`, the binding response (% of control) is reported as inconclusive: 103%.
In the case of `C=CCc1cccc(/C=N/NC(=O)C(C)Nc2ccc(C)cc2)c1O` (stereo not drawn), the binding response (% of control) is reported as inactive: 110%.
For `O=C(COC(=O)c1cccc(S(=O)(=O)NCc2ccccc2)c1)NCC1CCCO1` (stereo not drawn), the binding response (% of control) was inconclusive: 95.7%.
For `CCOCCCNC(=S)Nc1ccc(S(N)(=O)=O)cc1`, the binding response (% of control) was inactive: 112%.
With `CCOc1cc(NC(=S)NCCOC)c(OCC)cc1NC(=O)c1ccco1` the binding response (% of control) was inactive: 104%.
For `CCOc1ccc(OCCSc2nc(N)cc(=O)[nH]2)cc1`, the binding response (% of control) was inconclusive: 92.9%.
`COC(=O)[C@H](CCSC)NC(=O)NC1CC1` was tested, and the binding response (% of control) was inconclusive: 81.1%.
`Clc1ccccc1Cc1noc(CN2CCCCC2c2ccccn2)n1` (stereo not drawn) was tested, and the binding response (% of control) was inactive: 102%.
`S=c1[nH]nc(-c2ccc(Cl)cc2)n1/N=C/c1cccs1` was tested, and the binding response (% of control) was inconclusive: 96.6%.
`COc1cccc(CCc2nnc(CCC(=O)NC(C)Cc3cccs3)o2)c1` (stereo not drawn) was tested, and the binding response (% of control) was inconclusive: -37%.
For `O=C(Cc1ccc(Cl)cc1)OCc1nnc(-c2ccccc2)o1`, the binding response (% of control) was inconclusive: 94.3%.
`CN1CCN(CC(=O)Nc2ccccc2Oc2ccccc2)CC1` was tested, and the binding response (% of control) was inconclusive: 83.8%.
